{"source": "paper PMC4916389", "key": {"[1]": {"molecular_target": "T1, TAP42, yeast two-hybrid fusion (Sordaria macrospora) (UniProt F7VNJ5)", "T1 sequence": "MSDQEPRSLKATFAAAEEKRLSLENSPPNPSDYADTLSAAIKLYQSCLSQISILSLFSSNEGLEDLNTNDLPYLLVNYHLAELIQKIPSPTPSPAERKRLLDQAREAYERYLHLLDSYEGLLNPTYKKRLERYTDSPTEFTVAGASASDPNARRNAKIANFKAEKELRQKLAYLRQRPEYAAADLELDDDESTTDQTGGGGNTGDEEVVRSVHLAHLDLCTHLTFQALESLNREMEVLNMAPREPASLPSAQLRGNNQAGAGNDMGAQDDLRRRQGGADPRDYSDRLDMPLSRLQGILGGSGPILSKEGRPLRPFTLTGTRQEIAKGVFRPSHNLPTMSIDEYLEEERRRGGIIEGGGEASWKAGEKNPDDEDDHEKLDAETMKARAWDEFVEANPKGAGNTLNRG", "test": "two-hybrid; Gal4 AD (pGADT7 derivatives, PJ69-4a) and BD (pGBKT7 derivatives, PJ69-4α) fusions in mated diploid S. cerevisiae; growth on SD medium lacking adenine, histidine, leucine and tryptophan/uracil; transactivating constructs pB-pp2Ac1, pB-pro11, pB-Smmob3 and pB-ENT1 omitted"}, "[2]": {"molecular_target": "MAPK MAK1, yeast two-hybrid fusion (Sordaria macrospora)", "test": "two-hybrid; Gal4 AD (pGADT7 derivatives, PJ69-4a) and BD (pGBKT7 derivatives, PJ69-4α) fusions in mated diploid S. cerevisiae; growth on SD medium lacking adenine, histidine, leucine and tryptophan/uracil; transactivating constructs pB-pp2Ac1, pB-pro11, pB-Smmob3 and pB-ENT1 omitted"}}, "note": "These are yes or no findings as the source states them, for the method shown. A result given as binding can be weak or reduced; the word gives no strength. Sequences can lack the tags named with a protein.", "data": [{"molecule": "MAPK MAK1, yeast two-hybrid fusion (Sordaria macrospora) (enzyme)", "values": [{"measurement": "binding", "setting": "[1]", "value": "binds"}]}, {"molecule": "PRO22, yeast two-hybrid fusion (protein, UniProt F7VWV9 1-1120) MTIMNALWSKATSSSGDSAQKSAKPTNDAVNTTSEALPDLSERPNAPALPARPALQRNQPSAPPPAAPSNPPPPVPSGSGSGNANNASAQPQDSLSLAQLRRIVAEFPKSEPIAYDYVYSDMGPIEEEVDEWFFYDFWQYVRLNNANHAFDSAWVKMYGEDETWESVDDDGREKFVRNEVEQLQVSSDKTARVEAIGTLLYIVLGRWTATVKKANLPNLADHKVKSAATKEQLDAMKAGVKLLAKYGGLPPMWDALRKAFELFWADDGDASQRVQANNEELMELMHLMTILYISLQTTMDDVEDMAVARKELLALNPNLVHFMLHATAKLRWDDRNILPQAQVGSATFGIPVAANQHRMLMSSQVFLLFWKSLLLVFGGSKHIAEAKKATAETLSDVKDKEIITASPLDYHVFRQEITSKYPSYIPPQCAIPLEAEQTSILPPLPNHPTRNNGQNGILPGPPNQSASASILHQPVHIATPAPSPPPSPGVGGKGGKKQNYQTNQNFPFMYPPLDATSNSAGGKGGAGLQDLLVGRKWEGSDVPASIIEAGELFSTRTRMTRATRQLWEERERFLKFERGWEGADEDLIDELDLSELTLEEKEELGLLKESEKKKEKHGHEIDLGPRPVDDDIKRRLEAVEEFYKEALPHLQSLVIVLLKAIVAIASSFVQPPPGQQNPGPQNNGRAGGGPPQGRGQNNGNNASNDPPSPSDDNVDEARSREIAAKAVTGIMILLLKWLKLSHILKFEYFTQLLLDSNYLPLVLKLFALHDVQQVVESKTDRIEHSFFYFCASRSGVIPPQGLINPTATDFEDVDVSEDEAAPPAIKRNRSPPGAEKGGPPDASSQPTQQQQQQQRFENSDVQSRPEVDELGYPVNPLPKEPITDFSRRNFFSLINYLRVMQKICKHKAHRNLLLVHYKSSNILRKSLKVPQQELRLYTLKLFKNQVPYCGRKWRQSNMRVITAIYLHCRPELRDEWLSGSDVDAEVEEALPLEQALRSLTHWFNVQRYPERMGAEVTAAMREERDFFTRELEKSDWMGWEGIMAGGGMGMDGGGGGPEPMMGMQGMQGMPGMPGMGMGMNMGMPGMGIGGMPGMGGMAGIEYAAAAAAAQTEHENSMGWS", "values": [{"measurement": "binding", "setting": "[2]", "value": "binds"}]}]}
